Experimental data reported in patent publication US20210238225A1 (DANA-FARBER CANCER INSTITUTE, INC., priority 2018, published 2021).

Experiment: general procedure: Fmoc solid-phase peptide synthesis; Wang resin (1.45 meq/g); Rink Amide resin for some peptides; HATU/DIPEA
Conditions: late stage modification step

Row | Substance | step yield
1 | (S)-2-((S)-2-((S)-1-(N-(tert-Butoxycarbonyl)-N-methyl-L-phenylalanyl)piperidine-2-carboxamido)-3-(1H-indol-3-yl)propanamido)-5-ureidopentanoic acid | 80%
2 | (S)-5-((S)-2-(((S)-1-(((S)-1-Amino-1-oxo-5-ureidopentan-2-yl)amino)-3-(1H-indol-3-yl)-1-oxopropan-2-yl)carbamoyl)piperidin-1-yl)-4-(2-fluoroacetamido)-5-oxopentanoic acid | 75%
3 | (S)-5-((S)-2-(((S)-1-(((S)-1-Amino-1-oxo-5-ureidopentan-2-yl)amino)-3-(naphthalen-2-yl)-1-oxopropan-2-yl)carbamoyl)piperidin-1-yl)-4-(2,5-dioxo-2,5-dihydro-1H-pyrrol-1-yl)-5-oxopentanoic acid | 26%
4 | (S)-5-((S)-2-(((S)-1-(((S)-1-Amino-1-oxo-5-ureidopentan-2-yl)amino)-3-(naphthalen-2-yl)-1-oxopropan-2-yl)carbamoyl)piperidin-1-yl)-5-oxo-4(vinylsulfonamido)pentanoic acid | 20%
5 | (S)—N—((S)-1-(((S)-1-(((S)-1-Amino-6-(6-((4S,5R)-5-methyl-2-oxoimidazolidin-4-yl)hexanamido)-1-oxohexan-2-yl)amino)-1-oxo-5-ureidopentan-2-yl)amino)-3-(1H-indol-3-yl)-1-oxopropan-2-yl)-1-(N-(2-chloroacetyl)-N-methyl-L-phenylalanyl)-piperidine-2-carboxamide | 70%
6 | (S)—N—((S)-3-(1H-indol-3-yl)-1-(((S)-1-((4-methylbenzyl)amino)-1-oxo-5-ureidopentan-2-yl)amino)-1-oxopropan-2-yl)-1-((cyanomethyl)-L-phenylalanyl)piperidine-2-carboxamide | 58%
7 | (S)—N—((S)-3-(1H-indol-3-yl)-1-(((S)-1-((4-methylbenzyl)amino)-1-oxo-5-ureidopentan-2-yl)amino)-1-oxopropan-2-yl)-1-(N-(2-chloroacetyl)-N-methyl-L-phenylalanyl)piperidine-2-carboxamide | 85%
8 | (S)—N—((S)-3-(1H-indol-3-yl)-1-(((S)-1-((4-methylbenzyl)amino)-1-oxo-5-ureidopentan-2-yl)amino)-1-oxopropan-2-yl)-1-(methyl-L-phenylalanyl)piperidine-2-carboxamide | 80%
9 | Ethyl (S)-2-((S)-2-((S)-1-(N-(2-chloroacetyl)-N-methyl-L-phenylalanyl)piperidine-2-carboxamido)-3-(1H-indol-3-yl)propanamido)-5-ureidopentanoate | 40%
10 | Ethyl (S)-2-((S)-3-(1H-indol-3-yl)-2-((S)-1-(methyl-L-phenylalanyl)piperidine-2-carboxamido)propanamido)-5-ureidopentanoate | 52%
11 | Methyl (4S)-5-((S)-2-(((S)-1-(((S)-1-amino-1-oxo-5-ureidopentan-2-yl)amino)-3-(1H-indol-3-yl)-1-oxopropan-2-yl)carbamoyl)piperidin-1-yl)-4-(oxirane-2-carboxamido)-5-oxopentanoate | 29%
12 | Methyl (S)-5-((S)-2-(((S)-1-(((S)-1-amino-1-oxo-5-ureidopentan-2-yl)amino)-3-(1H-indol-3-yl)-1-oxopropan-2-yl)carbamoyl)piperidin-1-yl)-4-(2-chloroacetamido)-5-oxopentanoate | 54%
13 | Methyl (S)-5-((S)-2-(((S)-1-(((S)-1-amino-1-oxo-5-ureidopentan-2-yl)amino)-3-(1H-indol-3-yl)-1-oxopropan-2-yl)carbamoyl)piperidin-1-yl)-4-(2-fluoroacetamido)-5-oxopentanoate | 65%
14 | tert-Butyl ((S)-1-((S)-2-(((S)-3-(1H-indol-3-yl)-1-(((S)-1-((4-methylbenzyl)amino)-1-oxo-5-ureidopentan-2-yl)amino)-1-oxopropan-2-yl)carbamoyl)piperidin-1-yl)-1-oxo-3-phenylpropan-2-yl)(methyl)carbamate | 40%
